No constants are given. Whether binding was seen depends on the method and setting. In cells and extracts the contact can be indirect. Some binding calls cover weakened binding; strength is not graded here.
Experiments:
[1] = target: Estrogen receptor alpha/estrogen receptor 1 (human (endogenous in ZR-75-1, MCF7 and patient breast tumor)) (UniProt P03372); test: co-IP; endogenous proteins in lysate of a fresh frozen, treatment-naive, ERα-positive primary breast carcinoma; IP with ERα antibody, protein G agarose; western blot
[2] = target: Estrogen receptor alpha/estrogen receptor 1 (human (endogenous in ZR-75-1, MCF7 and patient breast tumor)) (UniProt P03372); test: co-IP; endogenous proteins in ZR-75-1 and MCF7 lysates (20 mM Tris pH 8.0, 150 mM NaCl, 5 mM MgCl2, 0.5% NP40); 2.5 mg precleared lysate with 6 μg antibody overnight at 4°C, protein G agarose; western blot

The chains behind the UniProt entries cited, without tags or fusion partners.
UniProt P03372: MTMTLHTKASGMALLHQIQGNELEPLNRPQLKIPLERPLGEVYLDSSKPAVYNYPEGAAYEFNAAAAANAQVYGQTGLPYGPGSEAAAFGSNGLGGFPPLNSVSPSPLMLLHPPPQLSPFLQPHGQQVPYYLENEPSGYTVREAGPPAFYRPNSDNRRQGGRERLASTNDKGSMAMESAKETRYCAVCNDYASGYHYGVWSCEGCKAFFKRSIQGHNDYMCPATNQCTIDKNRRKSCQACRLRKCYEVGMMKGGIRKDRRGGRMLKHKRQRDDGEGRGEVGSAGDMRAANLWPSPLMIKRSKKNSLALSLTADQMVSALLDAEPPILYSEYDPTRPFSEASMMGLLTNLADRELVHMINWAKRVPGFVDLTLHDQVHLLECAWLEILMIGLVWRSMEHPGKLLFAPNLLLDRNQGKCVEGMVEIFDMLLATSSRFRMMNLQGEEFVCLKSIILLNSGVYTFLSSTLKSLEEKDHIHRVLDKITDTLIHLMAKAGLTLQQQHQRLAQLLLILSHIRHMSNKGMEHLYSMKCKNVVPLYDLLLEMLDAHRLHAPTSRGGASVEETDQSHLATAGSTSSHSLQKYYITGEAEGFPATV

B1: MDM4/MDMX/HDMX (protein, UniProt O15151-1 1-490)
chain: MTSFSTSAQCSTSDSACRISPGQINQVRPKLPLLKILHAAGAQGEMFTVKEVMHYLGQYIMVKQLYDQQEQHMVYCGGDLLGELLGRQSFSVKDPSPLYDMLRKNLVTLATATTDAAQTLALAQDHSMDIPSQDQLKQSAEESSTSRKRTTEDDIPTLPTSEHKCIHSREDEDLIENLAQDETSRLDLGFEEWDVAGLPWWFLGNLRSNYTPRSNGSTDLQTNQDVGTAIVSDTTDDLWFLNESVSEQLGVGIKVEAADTEQTSEEVGKVSDKKVIEVGKNDDLEDSKSLSDDTDVEVTSEDEWQCTECKKFNSPSKRYCFRCWALRKDWYSDCSKLTHSLSTSDITAIPEKENEGNDVPDCRRTISAPVVRPKDAYIKKENSKLFDPCNSVEFLDLAHSSESQETISSMGEQLDNLSEQRTDTENMEDCQNLLKPCSLCEKRPRDGNIIHGRTGHLVTCFHCARRLKKAGASCPICKKEIQLVIKVFIA
[1]
  binding: binds
[2]
  binding: binds
